Assay results as given in US20260242730A1 (POINTLOMA BIOSCIENCES, published 2026).
Substitutions are numbered along the chain they refer to. Results are given in words; binding and its absence hold for the method and conditions named. Some binding calls cover weakened binding; strength is not graded here.

The chains behind the UniProt entries cited, without tags or fusion partners. Residues count along the entry.
UniProt P09758, residues 27-323: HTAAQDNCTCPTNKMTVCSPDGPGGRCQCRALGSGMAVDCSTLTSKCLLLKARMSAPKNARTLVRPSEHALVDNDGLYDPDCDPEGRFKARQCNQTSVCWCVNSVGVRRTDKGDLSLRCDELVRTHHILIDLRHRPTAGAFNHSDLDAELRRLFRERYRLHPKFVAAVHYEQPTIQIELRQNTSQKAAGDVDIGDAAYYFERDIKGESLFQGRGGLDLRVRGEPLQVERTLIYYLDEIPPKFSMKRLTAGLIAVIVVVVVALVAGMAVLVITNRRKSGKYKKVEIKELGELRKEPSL

B1: anti-TROP2 #TP1 VHH (VHH)
VHH: EVQVVESGGGLAQPGGSLRLSCAASGFWFSTYAMSWARQAPGKGLEWVSGIYADGSATYYADSVKGRFTISRDNAKNTLYLHMNSLKPEDTALYYCAQGYSDYDRRVGGYDYWGQGTQVTVSS
B2: anti-TROP2 #TP2 VHH (VHH)
VHH: B1 VHH with V4L, W28T, A57G, H82Q, V107L, G109E
B3: anti-TROP2 #TP4 VHH (VHH)
VHH: QLQLVESGGGLVQPGGSLRLSCAASGFTLDDYAMRWFRQAPGKAREGVSCISRSDGTTYYADSVKGRFTISRNNAENTVYLQMNSLKPEDTAVYYCAADSLGCNGYSDWGVDYWAKGTLVTVSS
B4: anti-TROP2 #TP5 VHH (VHH)
VHH: QLQLVESGGGLVQPGGSLKLSCAASGFTLDYWTIGWFRQAPGKEREGVSCISSSDGSTYYADSVKGRFTISRDNAKRTVNLQMNSLKPEDTAVYYCAAGSLGYCSRSTPQYEYDFWGQGTQVTVSS
B5: anti-TROP2 #TP7 VHH (VHH)
VHH: B4 VHH with K19R, T28S, D30E, Y31H, G56A, R77K, T78S, N80Y, P88L, F115Y
B6: anti-TROP2 #TP8 VHH (VHH)
VHH: B4 VHH with K19R, I51V, D55G, S57I, A75E, N80Y, F115Y
B7: anti-TROP2 #TP6 VHH (VHH)
VHH: QLQLVESGGGLVQPGGSLRLSCAASGTLDYWTVGWFRQAPGKEREGVSCISSSDSSTYYADSVKGRFTISRDNAKNTVYLQMNSLKPEDTAVYYCAAGSLGYCSRSTPQYEYDFWGQGTQVTVSS
B8: anti-TROP2 #TP9 VHH (VHH)
VHH: QVQLVESGGGLVQPGGSLRLSCAASGFSLDYWAIAWFRQAPGKEREGVSCSGSRGSTHYADSVKGRFTISRDNAKNTVYLQMNSLKPEDAGVYYCAVGSTLYSLTPYEYDYWGQGTQVTVSS
B9: anti-TROP2 #TP10 VHH (VHH)
VHH: B8 VHH with S28R, Y31H, A35G, R54D, G55E, H58Y, A90T, L101W
B10: anti-TROP2 #TP11 VHH (VHH)
VHH: QVQLVESGGGLVQPGGSLRVSCAASGFRLDYYAIGWFRQAPGKEREGVSSINYSSGSTVYADSVKGRFTISRGNAKNTVYLQMNSLKPEDTAVYYCAVGTVVTSLAPYEYDYWGQGTQVTVSS
B11: anti-TROP2 #TP12 VHH (VHH)
VHH: QVQLVESGGGLVQPGGSLRLSCAASRFTLDYYAIGWIRQAPGKEREGVSCISSSGGSTNYADSVKGRFTISRDNAKNTVYLQMNSLKPEDTGVYYCAATTYACSGYVPRAYEYDYWGQGTQVTVSS
B12: anti-TROP2 #TP13 VHH (VHH)
VHH: EVQLVESGGGLVQPGGSLRLSCALSGFTKDYYGIGWFRQAPGKEREGVSCISVSGSSTNYADSVKGRFTISRDNAKNTVYLQMNSLKPEDTGVYYCAAAFMGSDYVVPEMSREYDYWGQGTQVTVSS
B13: anti-TROP2 #TP14 VHH (VHH)
VHH: EVQVVESGGGLVQPGGSLRLSCAVSGFTLDWYAIGWFRQAPGKEHEGVACIDPSERSTYADPVKGRFTISRDNAKNTVHLQMNSLKPEDTAVYYCAADTLPCFFYGSMWPPPDNWGQGTQVTVSS
B14: anti-TROP2 #TP15 VHH (VHH)
VHH: QVQLVESGGGLVQPGGSLRLSCAVSGDIFSFYSMGWYRQAPGEQRELVAHITSGGSTHYADSVKGRFTISRDNAKNTVYLQMNSPKPEDTAVYYCNADLDYWVDSMGPYWGQGTQVTVSS
B15: anti-TROP2 #TP16 VHH (VHH)
VHH: QVQLVESGGGLVQPGGSLRLSCAASGFAFSFYVMTWYRQAPGKQREQVAAITSYGGANYADSVKGRFTISRDNAKNTVYLQMNALTSEDTAVYSCNAHLGPYDYWGQGTQVTVSS
B16: anti-TROP2 #TP17 VHH (VHH)
VHH: EVQLVESGGGMVQPGGSLRLSCAFSGLTFSNYAMTWYRQAPGKERELVAGTPSPGGTTTYADSVKGRFTISRDNAEDTVYLQMNSLKPEDTAVYYCHARWMWPSDNAGMGYWGKGTLVTVSS
B17: anti-TROP2 #TP18 VHH (VHH)
VHH: QVQLVESGGGLVQPGGSLRLSCAASSSIFSIAIMGWYRQAPGKQRELVATISATDVTHYADSVKGRFTISRDDAWNAVYLQMDSLKAEDTAVYYCNSYLLQQRVPWGQGTQVTVSS
B18: anti-TROP2 #TP19 VHH (VHH)
VHH: B17 VHH with Q1E, L4V, S26R, I28V, S30N, T50S, H58S, A87S

target: TROP2 on TROP2-positive cells (TROP2-CHOK1, MDA-MB-468, HCC1806, NCI-H1975, HPAF-II, N87) (human) (UniProt P09758); experiment: flow cytometry, phage staining of cells

| Binder | binding |
| --- | --- |
| B1 | binds |
| B2 | binds |
| B3 | binds |
| B4 | binds |
| B5 | binds |
| B6 | binds |
| B7 | binds |
| B8 | binds |
| B9 | binds |
| B10 | binds |
| B11 | binds |
| B12 | binds |
| B13 | binds |
| B14 | binds |
| B15 | binds |
| B16 | binds |
| B17 | binds |
| B18 | binds |
